Assay [1] addresses T1, HOCl modified CII (bovine, UniProt P02459 201-1214, modified with HOCl; residues not stated).
T1 construct: also called HOCl-CII; HOCl-Collagen II
In words: phage ELISA screen; Antigen column of Table 3. (An ELISA detects its analyte on a solid surface through an enzyme-linked reagent.)

Chains of the proteins cited; added tags and fusions are not shown. Residues count along the entry.
UniProt P02459, residues 201-1214: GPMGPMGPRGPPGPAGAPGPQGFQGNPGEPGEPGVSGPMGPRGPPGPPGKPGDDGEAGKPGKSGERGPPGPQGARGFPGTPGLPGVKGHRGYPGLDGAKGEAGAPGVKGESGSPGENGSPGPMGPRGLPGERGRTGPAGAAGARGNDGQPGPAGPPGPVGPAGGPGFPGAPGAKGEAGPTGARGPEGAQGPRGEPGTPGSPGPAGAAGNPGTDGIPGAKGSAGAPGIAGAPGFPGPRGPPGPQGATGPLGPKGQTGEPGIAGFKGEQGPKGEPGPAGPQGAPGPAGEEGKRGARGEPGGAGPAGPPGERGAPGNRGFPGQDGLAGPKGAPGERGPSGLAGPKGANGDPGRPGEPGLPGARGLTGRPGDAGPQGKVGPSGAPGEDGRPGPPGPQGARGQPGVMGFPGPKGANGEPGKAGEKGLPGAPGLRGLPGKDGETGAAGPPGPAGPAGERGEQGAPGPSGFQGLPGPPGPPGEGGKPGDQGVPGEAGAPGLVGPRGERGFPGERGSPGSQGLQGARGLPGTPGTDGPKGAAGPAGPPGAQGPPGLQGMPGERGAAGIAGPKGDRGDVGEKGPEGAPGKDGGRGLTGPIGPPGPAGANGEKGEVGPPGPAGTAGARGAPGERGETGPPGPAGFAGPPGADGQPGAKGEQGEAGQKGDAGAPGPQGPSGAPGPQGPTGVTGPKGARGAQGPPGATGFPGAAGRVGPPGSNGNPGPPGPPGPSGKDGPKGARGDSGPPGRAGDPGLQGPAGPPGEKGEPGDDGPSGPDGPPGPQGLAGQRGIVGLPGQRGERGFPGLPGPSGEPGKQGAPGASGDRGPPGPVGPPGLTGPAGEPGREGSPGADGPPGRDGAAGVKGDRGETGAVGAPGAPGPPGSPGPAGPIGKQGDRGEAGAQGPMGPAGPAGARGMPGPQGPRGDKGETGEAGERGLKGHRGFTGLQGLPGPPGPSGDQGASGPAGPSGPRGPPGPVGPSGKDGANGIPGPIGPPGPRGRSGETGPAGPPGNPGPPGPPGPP

The target of assay [2] is T2, ribose-modified CII (bovine, UniProt P02459 201-1214, glycated with 2M ribose, overnight at 37 C; residues not stated).
T2 construct: also called Ribose-CII; glycated CII
As to the kind of experiment: phage ELISA screen; Antigen column of Table 3.

In assay [3] the target is native non-modified collagen type II (CII) (bovine) (UniProt P02459). In words: ELISA, purified scFv on coated antigen.
Assay [4] concerns the target T1, HOCl modified CII. In words: ELISA, purified scFv on coated antigen. The procedure:
(§1) Screening for positive anti-modified CII phage clones was first performed by enzyme-linked immunosorbent assay (ELISA), as previously described (Harrison J. L, 1996). Microtiter plate (Nunc, Paisley, UK) wells were coated with 10 μg/ml native or modified CII and incubated with 100 μl phage suspension for 90 minutes. In addition, native and modified BSA were used as negative control. After removal of the supernatants, the amount of bound phage was determined using peroxidase-labeled anti-M13 antibodies (GE Healthcare: Ltd, Little Chalfont, Buckinghamshire) and developed by using 100 mM 3,3′5,5′ tetramethylbenzidine (TMB) as substrate. The reaction was monitored in an ELISA reader at 450 nm with a reference wavelength of 650 nm using GENios plate reader (TECAN, Theale Court, Reading UK) and Magellan software (TECAN, Theale Court, Reading UK)
(§2) The reactive phage clones obtained from E. coli TG-1 bacteria were used to infect E. coli HB2151 non-suppressor bacterial strain to obtain soluble scFv. […] Binding of purified scFv to modified CII was first analyzed by ELISA as above except that mouse anti-myc tag antibody (Santa Cruz Biotechnology, INC, Wembley, UK) followed by anti-mouse-HRP conjugate (Sigma, Dorset, UK) were used to probe bound scFv.

Assay [5] addresses T2, ribose-modified CII. In words: ELISA, purified scFv on coated antigen. On the procedure: as §1, §2
In the next assay the target is T3, peroxynitrated CII (bovine, UniProt P02459 201-1214, modified with peroxynitrite (ONOO); residues not stated).
T3 construct: also called CII modified with ONOO; peroxynitrite-modified CII
As to the kind of experiment: ELISA, purified scFv on coated antigen. On the procedure: as §1, §2

Substrate in assay [6]: CII modified with hydroxyl radical (OH) (bovine) (UniProt P02459)
As to the kind of experiment: ELISA, purified scFv on coated antigen.

The values that follow come from patent publication US20160228570A1 (QUEEN MARY AND WESTFIELD COLLEGE, published 2016).

No constants are given. Whether binding was seen depends on the method and setting. Some binding calls cover weakened binding; strength is not graded here.

B1: scFv 4-11F (scFv)
scFv: EVQLLESGGGLVQPGGSLRLSCAASGFTFSSYAMSWVRQAPGKGLEWVSSISATGSSTYYADSVKGRFTISRDNSKNTLYLQMNSLRAEDTAVYYCAKNYSDFDYWGQGTLVTVSSGGGGSGGGGSGGGGSTDIQMTQSPSSLSASVGDRVTITCRASQSISSYLNWYQQKPGKAPKLLIYSASDLQSGVPSRFSGSGSGTDFTLTISSLQPEDFATYYCQQSSYTPTTFGQGTKVEIKR
For B1, the binding result with HOCl modified CII [1] and with ribose-modified CII [2] was “binds” each time.

B2: scFv 1-2E (scFv)
scFv: EVQLLESGGGLVQPGGSLRLSCAASGFTFSSYAMSWVRQAPGKGLEWVSSITDSGDTTYYADSVKGRFTISRDNSKNTLYLQMNSLRAEDTAVYYCAKNYSTFDYWGQGTLVTVSSGGGGSGGGGSGGGGSTDIQMTQSPSSLSASVGDRVTITCRASQSISSYLNWYQQKPGKAPKLLIYSASSLQSGVPSRFSGSGSGTDFTLTISSLQPEDFATYYCQQSNATPTTFGQGTKVEIKR
B2: the binding entry in the assay with ribose-modified CII [2] is recorded as “binds”.

B3: scFv 1-4D (scFv)
scFv: EVQLLESGGGLVQPGGSLRLSCAASGFTFSSYAMSWVRQAPGKGLEWVSSIASTGDSTYYADSVKGRFTISRDNSKNTLYLQMNSLRAEDTAVYYCAKNYSSFDYWGQGTLVTVSSGGGGSGGGGSGGGGSTDIQMTQSPSSLSASVGDRVTITCRASQSISSYLNWYQQKPGKAPKLLIYSASALQSGVPSRFSGSGSGTDFTLTISSLQPEDFATYYCQQASNYPTTFGQGTKVEIKR
Turning to B3, the binding result in the assay with HOCl modified CII [1] and with ribose-modified CII [2] was “binds” in each case.

B4: scFv 6-8C (scFv)
scFv: EVQLLESGGGLVQPGGSLRLSCAASGFTFSSYAMSWVRQAPGKGLEWVSSISSSGDTTYYADSVKGRFTISRDNSKNTLYLQMNSLRAEDTAVYYCAKSYSYFDYWGQGTLVTVSSGGGGSGGGGSGGGGSTDIQMTQSPSSLSASVGDRVTITCRASQSISSYLNWYQQKPGKAPKLLIYTASTLQSGVPSRFSGSGSGTDFTLTISSLQPEDFATYYCQQSSSNPTTFGQGTKVEIKR
Regarding B4, the binding entry in the assay with HOCl modified CII [1] is listed as “binds”.

B5: scFv 1-4H (scFv)
scFv: EVQLLESGGGLVQPGGSLRLSCAASGFTFSSYAMSWVRQAPGKGLEWVSSIDAGGNGTYYADSVKGRFTISRDNSKNTLYLQMNSLRAEDTAVYYCAKNYSSFDYWGQGTLVTVSSGGGGSGGGGSGGGGSTDIQMTQSPSSLSASVGDRVTITCRASQSISSYLNWYQQKPGKAPKLLIYYASSLQSGVPSRFSGSGSGTDFTLTISSLQPEDFATYYCQQSDAYPTTFGQGTKVEIKR
Consider B5, for which the binding result with HOCl modified CII [1] and with ribose-modified CII [2] was “binds” throughout.

B6: scFv 1-1C (scFv)
scFv: EVQLLESGGGLVQPGGSLRLSCAASGFTFSSYAMSWVRQAPGKGLEWVSSISYTGNSTDYADSVKGRFTISRDNSKNTLYLQMNSLRAEDTAVYYCAKGYTAFDYWGQGTLVTVSSGGGGSGGGGSGGGGSTDIQMTQSPSSLSASVGDRVTITCRASQSISSYLNWYQQKPGKAPKLLIYYASYLQSGVPSRFSGSGSGTDFTLTISSLQPEDFATYYCQQADSTPTTFGQGTKVEIKR
On to B6, for which the binding entry with HOCl modified CII [1] and with ribose-modified CII [2] was “binds” in each case.

B7: scFv 6-11D (scFv, not shown: small tags and cut ends)
scFv: EVQLLESGGGLVQPGGSLRLSCAASGFTFSSYAMSWVRQAPGKGLEWVSSIDTGGSYTDYADSVKGRFTISRDNSKNTLYLQMNSLRAEDTAVYYCAKSYTTFDYWGQGTLVTVSSGGGGSGGGGSGGGGSTDIQMTQSPSSLSASVGDRVTITCRASQSISSYLNWYQQKPGKAPKLLIYSASYLQSGVPSRFSGSGSGTDFTLTISSLQPEDFATYYCQQGSNSPTTFGQGTKVEIKR
notes: also called clone 6-11D; 4-5H
With B7, the binding entry (in assay [3]; with HOCl modified CII [4]; with ribose-modified CII [5]; with peroxynitrated CII; with HOCl modified CII [1]; with ribose-modified CII [2]) was “binds” in each case. Further, the binding result in assay [6] was “binds”.

B8: scFv 4-3H (scFv)
scFv: EVQLLESGGGLVQPGGSLRLSCAASGFTFSSYAMSWVRQAPGKGLEWVSTITSTGAATAYADSVKGRFTISRDNSKNTLYLQMNSLRAEDTAVYYCAKSYATFDYWGQGTLVTVSSGGGGSGGGGSGGGGSTDIQMTQSPSSLSASVGDRVTITCRASQSISSYLNWYQQKPGKAPKLLIYAASYLQSGVPSRFSGSGSGTDFTLTISSLQPEDFATYYCQQAANSPDTFGQGTKVEIKR
As for B8, in the assay with ribose-modified CII [2], the binding result is reported as “binds”.

B9: scFv 1-10D (scFv)
scFv: EVQLLESGGGLVQPGGSLRLSCAASGFTFSSYAMSWVRQAPGKGLEWVSSIDASGANTAYADSVKGRFTISRDNSKNTLYLQMNSLRAEDTAVYYCAKTYGTFDYWGQGTLVTVSSGGGGSGGGGSGGGGSTDIQMTQSPSSLSASVGDRVTITCRASQSISSYLNWYQQKPGKAPKLLIYSASYLQSGVPSRFSGSGSGTDFTLTISSLQPEDFATYYCQQSATTPDTFGQGTKVEIKR
Turning to B9, the binding entry with ribose-modified CII [2] is “binds”.

B10: scFv 3-3E (scFv)
scFv: EVQLLESGGGLVQPGGSLRLSCAASGFTFSSYAMSWVRQAPGKGLEWVSAIDGTGYGTAYADSVKGRFTISRDNSKNTLYLQMNSLRAEDTAVYYCAKSYDTFDYWGQGTLVTVSSGGGGSGGGGSGGGGSTDIQMTQSPSSLSASVGDRVTITCRASQSISSYLNWYQQKPGKAPKLLIYGASSLQSGVPSRFSGSGSGTDFTLTISSLQPEDFATYYCQQTSDYPNTFGQGTKVEIKR
In the case of B10, in the assay with HOCl modified CII [1], the binding entry is on record as “binds”.

B11: scFv 1-12A (scFv)
scFv: EVQLLESGGGLVQPGGSLRLSCAASGFTFSSYAMSWVRQAPGKGLEWVSSISNSGTNTDYADSVKGRFTISRDNSKNTLYLQMNSLRAEDTAVYYCAKNYASFDYWGQGTLVTVSSGGGGSGGGGSGGGGSTDIQMTQSPSSLSASVGDRVTITCRASQSISSYLNWYQQKPGKAPKLLIYYASYLQSGVPSRFSGSGSGTDFTLTISSLQPEDFATYYCQQGSASPSTFGQGTKVEIKR
Turning to B11, the binding entry with HOCl modified CII [1] and in the assay with ribose-modified CII [2] was “binds” throughout.

B12: scFv 1-6G (scFv)
scFv: EVQLLESGGGLVQPGGSLRLSCAASGFTFSSYAMSWVRQAPGKGLEWVSSISTAGTYTDYADSVKGRFTISRDNSKNTLYLQMNSLRAEDTAVYYCAKNYTDFDYWGQGTLVTVSSGGGGSGGGGSGGGGSTDIQMTQSPSSLSASVGDRVTITCRASQSISSYLNWYQQKPGKAPKLLIYSASYLQSGVPSRFSGSGSGTDFTLTISSLQPEDFATYYCQQSNTSPATFGQGTKVEIKR
As for B12, the binding entry in the assay with HOCl modified CII [1] and with ribose-modified CII [2] was “binds” each time.

B13: scFv 1-7G (scFv)
scFv: EVQLLESGGGLVQPGGSLRLSCAASGFTFSSYAMSWVRQAPGKGLEWVSSISNSGSYTDYADSVKGRFTISRDNSKNTLYLQMNSLRAEDTAVYYCAKGYGSFDYWGQGTLVTVSSGGGGSGGGGSGGGGSTDIQMTQSPSSLSASVGDRVTITCRASQSISSYLNWYQQKPGKAPKLLIYAASTLQSGVPSRFSGSGSGTDFTLTISSLQPEDFATYYCQQANSSPDTFGQGTKVEIKR
For B13, in the assay with ribose-modified CII [2], the binding entry was “binds”.

B14: scFv 3-9D (scFv)
scFv: EVQLLESGGGLVQPGGSLRLSCAASGFTFSSYAMSWVRQAPGKGLEWVSSIASSGTTTYYADSVKGRFTISRDNSKNTLYLQMNSLRAEDTAVYYCAKSYADFDYWGQGTLVTVSSGGGGSGGGGSGGGGSTDIQMTQSPSSLSASVGDRVTITCRASQSISSYLNWYQQKPGKAPKLLIYAASNLQSGVPSRFSGSGSGTDFTLTISSLQPEDFATYYCQQADTYPTTFGQGTKVEIKR
As to B14, the binding result with HOCl modified CII [1] is reported as “binds”.

B15: scFv 3-11E (scFv)
scFv: EVQLLESGGGLVQPGGSLRLSCAASGFTFSSYAMSWVRQAPGKGLEWVSSIDSAGDSTYYADSVKGRFTISRDNSKNTLYLQMNSLRAEDTAVYYCAKSYSYFDYWGQGTLVTVSSGGGGSGGGGSGGGGSTDIQMTQSPSSLSASVGDRVTITCRASQSISSYLNWYQQKPGKAPKLLIYTASYLQSGVPSRFSGSGSGTDFTLTISSLQPEDFATYYCQQASDYPTTFGQGTKVEIKR
As for B15, the binding entry in the assay with HOCl modified CII [1] was “binds”.

B16: scFv 3-10C (scFv)
scFv: EVQLLESGGGLVQPGGSLRLSCAASGFTFSSYAMSWVRQAPGKGLEWVSSIANAGTATYYADSVKGRFTISRDNSKNTLYLQMNSLRAEDTAVYYCAKSYSNFDYWGQGTLVTVSSGGGGSGGGGSGGGGSTDIQMTQSPSSLSASVGDRVTITCRASQSISSYLNWYQQKPGKAPKLLIYSASTLQSGVPSRFSGSGSGTDFTLTISSLQPEDFATYYCQQASTSPTTFGQGTKVEIKR
B16: in the assay with HOCl modified CII [1], the binding result is “binds”.
